For some of these results: At least one structure is not confirmed: it was looked up by name or label, or the drawing left a doubt. Some of these results come from one statement about several compounds together.
B1: IL-11: recombinant human IL-11 (protein, UniProt P20809 22-199, looked up)
Interleukin-11: PGPPPGPPRVSPDPRAELDSTVLLTRSLLADTRQLAAQLRDKFPADGDHNLDSLPTLAMSAGALGALQLPGVLTRLRADLLSYLRHVQWLRRAGGSSLKTLEPELGTLQARLDRLLRRLQLLMSRLALPQPPPDPPAPPLAPPSSAWGGIRAAHAILGGLHLTLDWAVRGLLLLKTRL

Columns and labels:
[1] = test system: SCID mice reconstituted with CD4+CD45RBHi T cells (SCID-IBD); test: SCID-IBD mouse model, treatment started the day after T cell transfer; type: in vivo
Text: It is known that the transfer of syngeneic, naive T lymphocytes (CD4^+CD45RB^Hi) into SCID mice results in a severe colitis and wasting disease, SCID-IBD.
In this study, SCID mice reconstituted with CD4^+CD45RB^Hi T lymphocytes were used. These mice are known to develop chronic colitis with characteristics similar to human IBD, as described above.
[…] […] BW was monitored throughout. On termination, blood was withdrawn, spleen, mesenteric lymph nodes (MLN) and colon were removed. Serum haptoglobin levels were measured (ELISA), colitis was assessed histologically and lymphocyte and neutrophil numbers were calculated from FACS analysis of blood, spleen and MLN cell suspensions.
In order to determine the efficacy of ASM981 treatment in preventing intestinal mucosal damage in SCID-IBD mice, a histological examination of the colon sections was performed according to defined morphological parameters. All colon sections were assessed according to a scheme awarding degrees of severity governed by the extent of cell infiltration and inflammation with a score of 8 being the maximum.

IBD patients = settings: recombinant human protein; cited from earlier work

Molecule	colitis ([1]; 3 and 10 mg/kg/day p.o.)	lymphocyte numbers in blood, spleen and MLN ([1]; mouse, in vivo)	patients with remission in trials (IBD patients)
C[C@@H]1C[C@H]2[C@@H]3CCC4=CC(=O)C=C[C@]4(C)[C@@]3(F)[C@@H](O)C[C@]2(C)[C@@]1(O)C(=O)CO [dexamethasone, Dexamethasone, reference compound]	inhibited the colitis	strongly inhibited	
IL-10: recombinant human IL-10			40-50%
B1			40-50%

Source: patent publication US20030119797A1, “Methods for selective immunomodulation” (priority 2001, published 2003)
